The list is a part of this screen's results and no random one: it is rich in T/C values a quarter to a half above the control, in often repeated tests (any T/C) and in doses without a T/C. Further doses and runs are listed elsewhere. T/C is the treated group as % of the vehicle group. Some doses have a count of surviving animals in place of a T/C: the source holds a T/C of zero for them, seemingly a mark for toxic or unscored doses. Some doses without a T/C left all or most animals alive at the check, yet need not have been tolerated: survival well below the control is almost never listed, so the zero probably covers shortened survival too. Survivors were counted at the toxicity check, usually on the fifth day, unless a day is given; later deaths do not show. Schedule codes are those of the source, read here as Q, the interval in days (D) or hours (H), X, the number of doses. For survival time, the PubChem record calls one and a half times the control and up active, and a quarter to a half above the control has no call in these data; cut-offs in other NCI protocols can differ. Some doses were run more than once; their values stand side by side, smallest first. Some T/C values are followed by the survivors on the day toxicity was checked, most often the fifth; without a count, all were alive then.
Test system: CD2F1 mice, L1210 leukemia ip, survival T/C
Test: NCI In Vivo Anticancer Drug Screen. Data for tumor model L1210 Leukemia (intraperitoneal) in CD2F1 (CDF1) mice
Details: higher T/C = longer survival
Method in brief: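 Activity against a transplanted murine tumor was judged by comparing the compound group with a vehicle group. The outcome in the treated animals was divided by that in the controls.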

[1] = T/C endpoint: mean survival time, dose: 200.0 mg/kg/injection, schedule: Q04DX003 (ip), vehicle: saline with Tween-80
[2] = T/C endpoint: mean survival time, dose: 400.0 mg/kg/injection, schedule: Q04DX003 (ip), vehicle: saline with Tween-80
[3] = T/C endpoint: mean survival time, dose: 400.0 mg/kg/injection, schedule: Q01DX009 (ip), vehicle: saline with Tween-80
[4] = T/C endpoint: mean survival time, dose: 200.0 mg/kg/injection, schedule: Q01DX009 (ip), vehicle: saline with Tween-80

Structure (SMILES): N#C[CH2][Sn]([I])([c]1ccccc1)[c]1ccccc1
- survivor count (T/C endpoint: mean survival time, dose: 1.56 mg/kg/injection, schedule: Q01DX009 (ip), vehicle: saline): 1 of 3

Structure (SMILES): Cc1[nH]c(C(=O)NN)c(C)c1C(=O)NN
- survivor count [1]: 6 of 6
- survivor count [2]: 3 of 6

Structure (SMILES): O=C(CC([Se]c1ccccc1)c1ccccc1)c1ccccc1 (stereo not drawn)
- survivor count [2]: 3 of 6

Structure (SMILES): O=C(O)c1ccsc1
- survivor count (T/C endpoint: mean survival time, dose: 150.0 mg/kg/injection, schedule: Q04DX003 (ip), vehicle: saline with Tween-80): 3 of 6

Structure (SMILES): C[S+](C)CCC(N)C(=O)O (stereo not drawn)
- survivor count (T/C endpoint: median survival time, dose: 100.0 mg/kg/injection, schedule: Q04DX002 (ip), vehicle: saline): 0 of 3
- survivor count (T/C endpoint: median survival time, dose: 200.0 mg/kg/injection, schedule: Q04DX002 (ip), vehicle: saline): 0 of 3
- survivor count (T/C endpoint: median survival time, dose: 400.0 mg/kg/injection, schedule: Q04DX002 (ip), vehicle: saline): 0 of 3

Structure (SMILES): Cc1cc(SCC(=O)c2ccc(Br)cc2)cc(C)[o+]1
- survivor count (T/C endpoint: mean survival time, dose: 100.0 mg/kg/injection, schedule: Q01DX009 (ip), vehicle: saline): 2 of 6
- survivor count (T/C endpoint: mean survival time, dose: 200.0 mg/kg/injection, schedule: Q01DX009 (ip), vehicle: saline): 3 of 6

Structure (SMILES): CCOP(=O)(OCC)C(C)c1ccccc1 (stereo not drawn)
- survivor count [3]: 3 of 6

Structure (SMILES): N#CC(C#N)CN(C1=NCCO1)c1cccc2c1CCCC2
- survivor count [1]: 6 of 6

Structure (SMILES): CCCCCCCCCCCCCCCC(O)S(=O)(=O)O (stereo not drawn)
- survivor count [4]: 1 of 6

Structure (SMILES): CCc1cccc([N+](=O)[O-])c1CC
- survivor count [1]: 6 of 6
- survivor count [2]: 0 of 6

Structure (SMILES): COc1cc(/C=N\NC(C)=O)cc(OC)c1OC
- survivor count [2]: 3 of 6

Structure (SMILES): O=C1c2c(O)cccc2-c2nn(CCNCCO)c3ccc(NCCNCCO)c1c23
- survivor count (T/C endpoint: median survival time, dose: 22.0 mg/kg/injection, schedule: Q01DX009 (ip), vehicle: water): 4 of 6
- survivor count (T/C endpoint: median survival time, dose: 44.0 mg/kg/injection, schedule: Q01DX009 (ip), vehicle: water): 2 of 6

Structure (SMILES): O=C(Cl)c1ccccc1Sc1ccccc1
- survivor count [1]: 2 of 6
- survivor count [2]: 1 of 6

Structure (SMILES): CCCCCCN(CCCCCC)CC(O)c1cccc2c1cc(Cl)c1ccccc12 (stereo not drawn)
- survivor count [2]: 6 of 6

Structure (SMILES): OCCN1CCN(CCCN2c3ccccc3Sc3ccc(Cl)cc32)CC1
- T/C (T/C endpoint: mean survival time, dose: 25.0 mg/kg/injection, schedule: Q04DX002 (ip), vehicle: Klucel (hydroxypropylcellulose) (HPC)): 131 % of control [5 of 6 alive]
- T/C (T/C endpoint: mean survival time, dose: 50.0 mg/kg/injection, schedule: Q01DX009 (ip), vehicle: Klucel (hydroxypropylcellulose) (HPC)): 127 % of control [5 of 6 alive]
- T/C (T/C endpoint: mean survival time, dose: 50.0 mg/kg/injection, schedule: Q04DX003 (ip), vehicle: saline): 127 % of control
- survivor count (T/C endpoint: mean survival time, dose: 50.0 mg/kg/injection, schedule: Q04DX009 (ip), vehicle: Klucel (hydroxypropylcellulose) (HPC)): 2 of 6
- T/C (T/C endpoint: mean survival time, dose: 100.0 mg/kg/injection, schedule: Q04DX003 (ip), vehicle: saline): 128 and 130 % of control
- survivor count (T/C endpoint: mean survival time, dose: 100.0 mg/kg/injection, schedule: Q04DX009 (ip), vehicle: Klucel (hydroxypropylcellulose) (HPC)): 0 of 6
- T/C (T/C endpoint: mean survival time, dose: 200.0 mg/kg/injection, schedule: Q04DX003 (ip), vehicle: saline): 135 % of control [5 of 6 alive]
- survivor count (T/C endpoint: mean survival time, dose: 200.0 mg/kg/injection, schedule: Q04DX009 (ip), vehicle: Klucel (hydroxypropylcellulose) (HPC)): 0 of 6

Structure (SMILES): CSc1ncnc2c1nnn2C1OC(COC(=O)c2ccccc2)C(OC(=O)c2ccccc2)C1OC(=O)c1ccccc1 (stereo not drawn)
- T/C (T/C endpoint: median survival time, dose: 100.0 mg/kg/injection, schedule: Q01DX005 (ip), vehicle: Klucel (hydroxypropylcellulose) (HPC)): 133 % of control
- T/C (T/C endpoint: median survival time, dose: 200.0 mg/kg/injection, schedule: Q01DX005 (ip), vehicle: Klucel (hydroxypropylcellulose) (HPC)): 133 and 145 % of control

Structure (SMILES): c1ccc2cc(N=NNc3ccc4ccccc4c3)ccc2c1
- survivor count [2]: 4 of 6

Structure (SMILES): CCNC1=C(C)C(=O)C2=C(C1=O)C(COC(N)=O)C1(OC)C3NC3CN21 (stereo not drawn)
- T/C (T/C endpoint: mean survival time, dose: 24.0 mg/kg/injection, schedule: Q01DX001 (ip), vehicle: water): 142 % of control

Structure (SMILES): C(OC[C@H]1CC[C@@H](COCC2CO2)O1)C1CO1 (stereo partly drawn)
- T/C (T/C endpoint: mean survival time, dose: 300.0 mg/kg/injection, schedule: Q01DX009 (ip), vehicle: saline): 130 % of control

Structure (SMILES): CN(Cc1ccccc1)/N=N/c1nc[nH]c1C(N)=O
- T/C (T/C endpoint: mean survival time, dose: 64.5 mg/kg/injection, schedule: Q01DX009 (ip), vehicle: Klucel (hydroxypropylcellulose) (HPC)): 136 % of control
- T/C (T/C endpoint: median survival time, dose: 32.0 mg/kg/injection, schedule: Q03HX024 (ip), vehicle: saline with Tween-80): 148 % of control
- T/C (T/C endpoint: median survival time, dose: 64.0 mg/kg/injection, schedule: Q01DX009 (ip), vehicle: saline with Tween-80): 132 % of control
- T/C (T/C endpoint: median survival time, dose: 64.0 mg/kg/injection, schedule: Q03HX016 (ip), vehicle: saline with Tween-80): 142 % of control
- T/C (T/C endpoint: median survival time, dose: 64.0 mg/kg/injection, schedule: Q03HX024 (ip), vehicle: saline with Tween-80): 129 % of control
- T/C (T/C endpoint: median survival time, dose: 128.0 mg/kg/injection, schedule: Q01DX009 (ip), vehicle: saline with Tween-80): 129 % of control
- T/C (T/C endpoint: median survival time, dose: 256.0 mg/kg/injection, schedule: Q04DX003 (ip), vehicle: saline with Tween-80): 131 % of control
- survivor count (T/C endpoint: median survival time, dose: 512.0 mg/kg/injection, schedule: Q01DX009 (ip), vehicle: saline with Tween-80): 8 of 10
- T/C (T/C endpoint: median survival time, dose: 512.0 mg/kg/injection, schedule: Q04DX003 (ip), vehicle: saline with Tween-80): 125 % of control

Structure (SMILES): CCS(=O)(=O)Nc1ccc(Nc2c3ccccc3nc3ccccc23)c(OC)c1
- T/C (T/C endpoint: mean survival time, dose: 1.25 mg/kg/injection, schedule: Q01DX009 (ip), vehicle: saline): 133 % of control
- T/C (T/C endpoint: mean survival time, dose: 2.5 mg/kg/injection, schedule: Q01DX009 (ip), vehicle: saline): 131 % of control
- T/C (T/C endpoint: mean survival time, dose: 10.0 mg/kg/injection, schedule: Q01DX009 (ip), vehicle: saline): 137 % of control

Structure (SMILES): COc1ccc2cc[n+](C)c(Cc3ccc(OC)c(Oc4ccc(Cc5c(OC)ccc6cc[n+](C)cc56)cc4)c3)c2c1
- survivor count (T/C endpoint: mean survival time, dose: 12.5 mg/kg/injection, schedule: Q04DX003 (ip), vehicle: other): 1 of 3
- survivor count (T/C endpoint: mean survival time, dose: 25.0 mg/kg/injection, schedule: Q04DX003 (ip), vehicle: other): 0 of 3

Structure (SMILES): CC1=CC2c3cccc4[nH]cc(c34)CC2N(C)C1 (stereo not drawn)
- survivor count (T/C endpoint: median survival time, dose: 40.0 mg/kg/injection, schedule: Q01DX009 (ip), vehicle: suspension in saline): 2 of 6

Structure (SMILES): C=CCSc1cccc(C)c1
- survivor count (T/C endpoint: mean survival time, dose: 400.0 mg/kg/injection, schedule: Q01DX001 (ip), vehicle: saline): 3 of 6

Structure (SMILES): CC(=O)CC(=O)C(F)(F)F.CC(=O)CC(=O)C(F)(F)F.[Ni]
- survivor count (T/C endpoint: median survival time, dose: 100.0 mg/kg/injection, schedule: Q04DX002 (ip), vehicle: saline with Tween-80): 1 of 3
- survivor count (T/C endpoint: median survival time, dose: 200.0 mg/kg/injection, schedule: Q04DX002 (ip), vehicle: saline with Tween-80): 0 of 3

Structure (SMILES): CCCC(C)CC1CCC(N)CC1 (stereo not drawn)
- survivor count (T/C endpoint: mean survival time, dose: 400.0 mg/kg/injection, schedule: Q04DX002 (ip), vehicle: saline): 1 of 3

Structure (SMILES): Cn1ccc(=Nc2ccc(NC(=O)c3ccc(N=c4ccn(C)c5ccc([N+](=O)[O-])cc45)cc3[N+](=O)[O-])cc2)cc1
- T/C (T/C endpoint: mean survival time, dose: 50.0 mg/kg/injection, schedule: Q01DX009 (ip), vehicle: saline with Tween-80): 127 % of control
- T/C (T/C endpoint: mean survival time, dose: 100.0 mg/kg/injection, schedule: Q01DX009 (ip), vehicle: saline with Tween-80): 125 % of control
- T/C [4]: 145 [4 of 5 alive] and 147 % of control
- T/C [3]: 139 % of control

Structure (SMILES): COc1ccc(OC)c(NC(=O)N2CCCC(C)C2)c1 (stereo not drawn)
- survivor count (T/C endpoint: mean survival time, dose: 400.0 mg/kg/injection, schedule: Q01DX009 (ip), vehicle: other): 6 of 6

Reference: PubChem BioAssay AID256 (DTP/NCI, 2004)
